# Measured values as given in PubChem BioAssay AID1671190 (National Center for Advancing Translational Sciences (NCATS), 2021).
# Amino acid sequences for entries named in this document (tags omitted). A change or cut given only in a name is not applied to a line headed by its entry.
# UniProt P18054: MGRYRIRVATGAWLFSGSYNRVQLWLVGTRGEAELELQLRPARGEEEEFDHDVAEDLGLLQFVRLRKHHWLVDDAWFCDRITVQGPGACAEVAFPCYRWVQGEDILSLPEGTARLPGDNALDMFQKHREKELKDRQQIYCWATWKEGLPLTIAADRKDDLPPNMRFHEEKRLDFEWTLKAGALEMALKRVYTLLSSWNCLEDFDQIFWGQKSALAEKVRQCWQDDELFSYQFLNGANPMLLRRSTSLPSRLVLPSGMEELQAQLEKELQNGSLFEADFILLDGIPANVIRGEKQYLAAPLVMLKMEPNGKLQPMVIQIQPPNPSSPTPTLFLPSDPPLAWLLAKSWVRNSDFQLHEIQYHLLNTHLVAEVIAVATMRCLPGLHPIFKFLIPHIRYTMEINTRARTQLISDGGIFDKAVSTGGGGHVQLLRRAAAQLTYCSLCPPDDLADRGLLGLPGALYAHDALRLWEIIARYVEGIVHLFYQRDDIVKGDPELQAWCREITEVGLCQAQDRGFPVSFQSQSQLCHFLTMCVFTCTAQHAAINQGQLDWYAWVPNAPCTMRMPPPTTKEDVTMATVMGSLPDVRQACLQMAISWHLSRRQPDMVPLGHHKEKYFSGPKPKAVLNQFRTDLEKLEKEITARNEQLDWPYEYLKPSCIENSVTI
# Hit rate of the full screen: of about 580,000 compounds, about 6,100 (1.1%) were called active. The inconclusive results got no clear call from the source; some entries with a clear call stand among them for comparison. The call rests on the fitted dose curve; in most records, active means well fitted inhibition curve with a large enough effect; inconclusive means small, poorly fitted or top-dose-only effect, or another doubt; inactive means no such curve, though single readings can be large or run the other way. Where the call is inconclusive, the potency comes from a doubtful curve fit. Square brackets hold non-standard residues; d marks the D form. Peptide text beside a SMILES is read from it. * marks the point of attachment. Boc = CC(C)(C)OC(=O)*
# Target: Polyunsaturated fatty acid lipoxygenase ALOX12 (Homo sapiens) (UniProt P18054)
# Test: Primary qHTS assay for inhibitors of human arachidonate 12S-lipoxygenase (ALOX12): Round 2
# Settings: purified 12hLO, xylenol orange hydroperoxide absorbance; activity change, negative = inhibition: at 108 µM (top of the series) unless noted
# Summary of the method: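 Hydroperoxide product was detected by ferrous iron/xylenol orange as the 573 to 405 nm absorbance ratio. Arachidonic acid at 40 uM (final) was turned over for 30 min at room temperature by 150 nM human 12hLO, pH 7.0 Hepes buffer, after 15 min compound preincubation.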
# On the % scale 0 is the no-effect control and ±100 the full control effect; potency means the concentration at half of the fitted maximal effect.
SMILES,Potency,"activity change, negative = inhibition"
COc1ccc(/C=C2\SC(=O)N(CCCC(=O)Nc3cc(Cl)ccc3C(=O)O)C2=O)cc1,active: 35.5 µM,
CCOc1ccc2nc(N/C(N)=N/C(=S)Nc3cccc(C)c3)nc(C)c2c1,"inconclusive: 22.4 µM [inhibitor, full curve]",
CC1(C)CC(=O)c2sc(NS(=O)(=O)Cc3ccccc3)nc2C1,"inconclusive: 56.2 µM [inhibitor, partial curve, poor fit]",
O=C(CCCSc1nc2ccccc2[nH]1)NC1CCCCC1,inactive,
COc1ccc(Cl)cc1/C=C1/C(=O)ON=C1C,active: 31.6 µM,
CCCC(=O)C1=C(N(C)c2ccccc2)CC(C)(C)CC1=O,"inconclusive: 28.2 µM [inhibitor, partial curve, poor fit]",
CCOC(=O)C1=C(COC(=O)CC(O)(c2ccccc2)C(F)(F)F)NC(=O)NC1c1cccs1 (stereo not drawn),"inconclusive: 10 µM [inhibitor, full curve]",
NC(=O)COc1cccc(C2CC(=O)Nc3nc(N4CCCCC4)sc32)c1 (stereo not drawn),"inconclusive: 14.1 µM [inhibitor, partial curve, poor fit]",
COC(=O)CN1CCN(c2nc3c(c(=O)[nH]c(=O)n3C)n2Cc2cccc(Cl)c2)CC1,"inconclusive: 0.708 µM [inhibitor, partial curve, poor fit]",
CCOC(=O)Cn1c(=O)c(-c2ccccc2N)nc2ccccc21,inactive,
CCCCCOC(=O)C1=C(C)N(C)C(=O)NC1c1cc(Br)c(O)c(OC)c1 (stereo not drawn),"inconclusive: 89.1 µM [inhibitor, single point]",
N#CCCN1CCN(C(=S)c2ccc(-c3ccc(Cl)c(Cl)c3)o2)CC1,"inconclusive: 44.7 µM [inhibitor, single point]",
O=C(CNc1cccc(S(=O)(=O)N2CCCCC2)c1)Nc1ccc(C(F)(F)F)cc1,,inconclusive: -31.3% [inhibitor]
CCN(CC)c1ccc(NC(=O)c2cccc(F)c2)c(C)c1,"inconclusive: 56.2 µM [inhibitor, partial curve, poor fit]",
COc1cccc2sc(NC(=O)CSc3nncn3-c3ccc(C)cc3)nc12,"inconclusive: 20 µM [inhibitor, full curve, poor fit]",
Cc1cc(C)n2nc(SCC(=O)N3CCN(c4ccccc4)CC3)nc2n1,"inconclusive: 50.1 µM [inhibitor, partial curve, poor fit]",
CCCCCCCCCCCCCCCCCCN(C)C,"inconclusive: 5.62 µM [inhibitor, full curve]",
CCOc1ccc(C2C=C(c3ccc(F)cc3)Nc3ncnn32)cc1 (stereo not drawn),"inconclusive: 28.2 µM [inhibitor, single point]",
CCN(CC)S(=O)(=O)c1ccc(C(C)NCc2ccsc2)cc1 (stereo not drawn),"inconclusive: 25.1 µM [inhibitor, single point]",
N#CC(C#N)=C1C=CC=CN1/C(=C\c1ccco1)C(=O)c1ccc(Cl)cc1,"inconclusive: 39.8 µM [inhibitor, partial curve, poor fit]",
Cn1c(COc2ccc(Cl)cc2)n[nH]c1=S,"inconclusive: 50.1 µM [inhibitor, partial curve, poor fit]",

SMILES,Potency,"activity change, negative = inhibition"
Cn1c(=O)c2ccccc2n(CC(=O)Nc2ccc(Cl)cc2F)c1=O,"inconclusive: 31.6 µM [inhibitor, partial curve, poor fit]",
O=C(NCCNS(=O)(=O)c1ccc(C(F)(F)F)cc1)N1CCOCC1,"inconclusive: 35.5 µM [inhibitor, partial curve, poor fit]",
O=C1OC(CN2CCOCC2)CN1N=Cc1ccc([N+](=O)[O-])o1 (stereo not drawn),"inconclusive: 17.8 µM [inhibitor, partial curve, poor fit]",
CC(=O)N1CCC(N2CCOC[C@H]2c2ncc(-c3ccc(Cl)s3)[nH]2)CC1,"inconclusive: 50.1 µM [inhibitor, partial curve, poor fit]",
O=C(Cn1cccc1C(=O)c1ccccc1)NCc1ccc(Cl)cc1,inactive,
CCOc1cc(/C=C2/NC(=O)NC2=O)cc(Br)c1OCc1cccc(C(=O)O)c1,"inconclusive: 35.5 µM [inhibitor, partial curve, poor fit]",
CCCCCOc1ccc(C(=O)CCN2CCOCC2)cc1,"inconclusive: 22.4 µM [inhibitor, partial curve]",
CCOc1ccc(NC(=O)CC2C(=O)Nc3ccccc3N2C(=O)c2ccc(C(C)(C)C)cc2)cc1 (stereo not drawn),"inconclusive: 89.1 µM [inhibitor, single point]",
CCN(CC(=O)NCc1cccs1)C(=O)C1CC(=O)N(c2cccc3ccccc23)C1 (stereo not drawn),"inconclusive: 70.8 µM [inhibitor, partial curve, poor fit]",
CC(C)c1ccc(NC2CCCN(C(=O)c3n[nH]c4c3CCC4)C2)cc1 (stereo not drawn),inactive,
O=C(Cc1cccs1)NCc1cccc(Cl)c1,inactive,
COCCn1c2c(c(=O)[nH]c1=O)C(c1ccccc1)C1=C(N2)c2ccccc2C1=O (stereo not drawn),"inconclusive: 17.8 µM [inhibitor, full curve, poor fit]",
COc1ccc(NC(=O)CNC(=O)Cn2ccc3ccccc3c2=O)c(OC)c1,"inconclusive: 0.794 µM [inhibitor, full curve, poor fit]",
Cc1ccc(CNc2nc(CN3CCSCC3)nc3ccccc23)o1,"inconclusive: 28.2 µM [inhibitor, single point]",
CC(C)(C)C1CCc2onc(C(=O)Nc3cccc(O)c3)c2C1 (stereo not drawn),inactive,
CCOC(=O)CSc1nc(CC)nc2ccccc12,"inconclusive: 1.26 µM [inhibitor, full curve]",
NC1=NC2CS(=O)(=O)CC2S1 (stereo not drawn),"inconclusive: 28.2 µM [inhibitor, partial curve, poor fit]",
O[C@@H]1CC(CNCc2ccc(F)cc2)(COc2cccnc2)C[C@@H]1O (stereo partly drawn),"inconclusive: 12.6 µM [inhibitor, full curve]",
CC(C)(C)OC(=O)N[C@H](Cc1ccccc1)C(=O)N1CCC[C@@H]1C(=O)O (Boc-[dF]-[dP]-OH),"inconclusive: 44.7 µM [inhibitor, partial curve, poor fit]",
CCN(CC)C(=O)[C@H]1C[C@H](CC(=O)NCC23CC4CC(CC(C4)C2)C3)C(=O)N2CCc3c([nH]c4cc(-c5ccco5)ccc34)[C@]12C,"inconclusive: 79.4 µM [inhibitor, single point]",
C=C1CC(Cn2cc(Br)c(=O)[nH]c2=O)(c2ccc(-c3ccccc3)cc2)OC1=O (stereo not drawn),"inconclusive: 56.2 µM [inhibitor, partial curve, poor fit]",

SMILES,Potency,"activity change, negative = inhibition"
COc1ccc(C)c2sc(N(CCCN(C)C)C(=O)CS(=O)(=O)c3ccc(F)cc3)nc12,"inconclusive: 8.91 µM [inhibitor, full curve]",
Cc1ccc(-n2ncc3c(NCCc4ccccc4)ncnc32)cc1Cl,"inconclusive: 35.5 µM [inhibitor, partial curve]",
CC(O)CNc1nc2c(c(=O)n(C)c(=O)n2C)n1Cc1cccc(F)c1 (stereo not drawn),inactive,
CN(Cc1ccccc1)S(=O)(=O)c1ccc2[nH]cc(C(=O)NCC3CCCO3)c(=O)c2c1 (stereo not drawn),"inconclusive: 28.2 µM [inhibitor, partial curve, poor fit]",
CC(=O)Nc1ccc(S(=O)(=O)Nc2cccc(-n3cnnn3)c2)cc1,inactive,
CC(Oc1ccc(C(=O)c2ccccc2)cc1)C(=O)N1CCOCC1 (stereo not drawn),inactive,
CCOC(=O)c1sc(C)c2c1NC1(CCCCCC1)NC2=O,inactive,
CC(C)C[C@H]1CNC(=O)C(=O)N1C[C@@H]1CCCN1C[C@H](Cc1ccccc1)N1C[C@H](Cc2ccccc2)N(CCc2ccccc2)C(=O)C1=O,"inconclusive: 50.1 µM [inhibitor, partial curve, poor fit]",
O=C(NCc1ccccc1)C1CCCN1S(=O)(=O)c1ccc(Cl)cc1 (stereo not drawn),"inconclusive: 35.5 µM [inhibitor, partial curve, poor fit]",
COC(=O)C1=C(C)N(Cc2ccccc2C(F)(F)F)C(=NCc2ccccc2)NC1CCc1ccccc1 (stereo not drawn),"inconclusive: 112 µM [inhibitor, single point]",
O=C1NN(c2ccccc2)C(=O)/C1=C\c1ccccc1,"inconclusive: 12.6 µM [inhibitor, full curve]",
CC(Oc1cccc(F)c1)C(=O)/C=C\N(C)C (stereo not drawn),"inconclusive: 39.8 µM [inhibitor, partial curve, poor fit]",
Cc1cccc(Nc2n[nH]c(=S)s2)c1C,active: 6.31 µM,
Oc1c(CN2CCOCC2)cc(-c2ccccc2)cc1CN1CCOCC1,inactive,
N#Cc1ccc(N2CCN(CCCOCC(F)(F)F)CC2)c([N+](=O)[O-])c1,inactive,
O=C1/C(=C/c2cccc(F)c2)SC(=S)N1NS(=O)(=O)c1ccccc1,"inconclusive: 35.5 µM [inhibitor, single point]",
N#C/C(=C/c1cc(Br)cc(Br)c1O)c1nc2ccccc2[nH]1,"inconclusive: 44.7 µM [inhibitor, partial curve, poor fit]",
O=C(/C=C/c1ccc(-c2ccc(Cl)c(Cl)c2)o1)c1ccc(F)cc1,"inconclusive: 100 µM [inhibitor, single point]",
CCCc1sc(C(=O)OCC(=O)NC(=O)NC2CC2)cc1CC,"inconclusive: 79.4 µM [inhibitor, partial curve, poor fit]",
Cc1cccc(Oc2ccc3c(c2)cc(C(=O)NCc2ccco2)n3C)c1,"inconclusive: 25.1 µM [inhibitor, partial curve, poor fit]",
CCCCN1CC[C@H]2C=CC[C@@H](C(=O)Nc3nccs3)[C@H]2C1=O,,inconclusive: -42.4% [inhibitor]

# Arranged by length of the SMILES (falling): some entries from above
SMILES,Potency,"activity change, negative = inhibition"
CC(C)C[C@H]1CNC(=O)C(=O)N1C[C@@H]1CCCN1C[C@H](Cc1ccccc1)N1C[C@H](Cc2ccccc2)N(CCc2ccccc2)C(=O)C1=O,"inconclusive: 50.1 µM [inhibitor, partial curve, poor fit]",
COC(=O)C1=C(C)N(Cc2ccccc2C(F)(F)F)C(=NCc2ccccc2)NC1CCc1ccccc1 (stereo not drawn),"inconclusive: 112 µM [inhibitor, single point]",
Cc1cccc(Oc2ccc3c(c2)cc(C(=O)NCc2ccco2)n3C)c1,"inconclusive: 25.1 µM [inhibitor, partial curve, poor fit]",
